The values below come from paper PMC12040169 (PLOS Biology, 2025).

This is one part of the list.

This assay concerns T1, CTL2-GFP (C. trachomatis L2/434/Bu, GFP-expressing).
T1 construct: L2/434/Bu, GFP-expressing
Also on record: species or system HeLa; Intracellular C. trachomatis growth in HeLa cells, bulk GFP fluorescence relative to DMSO. Particulars: bulk GFP, single well; 28.5 h, 10 µM; inhibitor.
For the molecule `Cc1nn(CC(=O)NC(C)C)c(=O)c2cc3ccsc3n12` [CBK284027], the “% of control remaining” value is given as 153.384%.

Take `C/C(C(=O)O)=C(/C)C(=O)N1CCC2(C1)NCCc1c2[nH]c2ccccc12` (stereo not shown) [CBK046995]: the “% of control remaining” value turned out to be 104.605%.

Turning to `Cn1c(-c2c(CCC(=O)O)oc3cc(O)ccc3c2=O)nc2ccccc21` [CBK264831], the “% of control remaining” value is listed as 134.929%.

As to `Cc1ccc([C@@]2(O)CC[C@@H]3CN(S(=O)(=O)C(C)C)C[C@@H]32)cc1` [CBK285297], the “% of control remaining” value was found to be 119.679%.

For `Cc1ccccc1/N=C1/NC(=O)/C(=C/c2cccn2-c2ccc(S(N)(=O)=O)cc2)S1` [CBK265681], the “% of control remaining” value is recorded as 105.288%.

Regarding `NNC(=O)/C(=C\c1ccccc1)CCO` [CBK261215], the “% of control remaining” value stood at 84.6768%.

Take `Cn1cnc(S(=O)(=O)Nc2cccc3cc[nH]c23)c1` [CBK159554]: the “% of control remaining” value is recorded as 95.513%.

`O=C(c1ccc(-c2ccc(OCC3CCN(c4ncccn4)CC3)cn2)cc1)N1CCOCC1` [CBK173183]: the “% of control remaining” value is recorded as 125.335%.

Consider `O=C(CCn1cnc2ccccc21)N1CC[C@@H](c2ccccc2)[C@H](O)C1` [CBK283712], for which the “% of control remaining” value came to 97.5358%.

`Cc1nn(C)c(N2CCN(C(=O)OC(C)(C)C)CC2)c1N` [CBK034182]: the “% of control remaining” value is 6.084%.

Take `Cc1cc(C)nc(N2CCC(CC(=O)N(C)CC(C)c3ccccc3)CC2)n1` (stereo not shown) [CBK286105]: the “% of control remaining” value is reported as 104.701%.

With `COc1ccccc1NC(=O)C1=C(C)NC(SCC(=O)Nc2ccc(C(=O)O)cc2)=C(C#N)C1c1cccs1` (stereo not shown) [CBK296139], the “% of control remaining” value stood at 134.771%.

Consider `O=C(NCCCN1CCN(Cc2ccccc2)CC1)c1cn2cc(C(F)(F)F)cc(Cl)c2n1` [CBK074654], for which the “% of control remaining” value was 105.638%.

On to `CC(C)Nc1cncc(OCCN2CCNCC2)n1` [CBK115601], for which the “% of control remaining” value is on record as 105.018%.

In the case of `COC1C(O)C(CO)OC1n1ccc(NC(=O)c2ccccc2)nc1=O` (stereo not shown) [CBK201212], the “% of control remaining” value came out at 114.131%.

Consider `Cc1ccc(CN(CCCN(C)C)Cc2nc(C)n3ccccc23)o1` [CBK282482], for which the “% of control remaining” value turned out to be 85.5991%.

As for `COc1ccccc1NS(=O)(=O)c1cc(S(=O)(=O)Nc2ccccc2OC)c(C)cc1C` [CBK261493], the “% of control remaining” value is listed as 112.119%.

Turning to `N#Cc1ccc(C(=O)Nc2nnc(-c3ccccn3)o2)cc1` [CBK287428], the “% of control remaining” value amounted to 136.494%.

Take `CN(C)C(CNS(=O)(=O)c1ccc2[nH]c(=O)[nH]c(=O)c2c1)c1ccccc1Cl` (stereo not shown) [CBK286385]: the “% of control remaining” value worked out at 122.049%.

For `O=C1C2CCCN2S(=O)(=O)c2ccccc2N1Cc1ccccc1` (stereo not shown) [CBK284018], the “% of control remaining” value amounted to 106.686%.

`Nc1cc(N)nc(SCC(=O)Nc2nonc2N)n1` [CBK267522]: the “% of control remaining” value is on record as 144.433%.

As to `CC(=O)N1CC[C@H]2NC(=O)CNC(=O)C3(CCCC[C@H]2C1)CCN(C(=O)c1ccc(C)nc1)CC3` [CBK292172], the “% of control remaining” value is recorded as 169.445%.

With `O=C(c1cc2c(s1)CCC2)N1CCc2c(nc[nH]c2=O)C1` [CBK283703], the “% of control remaining” value was found to be 109.422%.

Take `O=C(O)c1sccc1NS(=O)(=O)Cc1ccccc1` [CBK004561]: the “% of control remaining” value is 180.841%.

As to `CCN(CC)CCN(Cc1ccc2c(c1)OCO2)C(=O)Nc1cccc(NC(C)=O)c1` [CBK159042], the “% of control remaining” value amounted to 100.323%.

Regarding `COc1ccc(Cc2nc(-c3ccccc3)c3ccccc3n2)cc1F` [CBK291176], the “% of control remaining” value came out at 138.8%.

Take `CC1CN(C2(n3nnc4ccccc43)CCC(C(C)(C)C)CC2)CC(C)O1` (stereo not shown) [CBK019373]: the “% of control remaining” value stood at 117.516%.

In the case of `CCSc1cc(Nc2nc(Cl)cc(SCC)n2)nc(N)n1` [CBK005164], the “% of control remaining” value is 113.624%.

Take `COc1ccc(Nc2nc(Cl)nc(NCCN3CCOCC3)n2)cc1` [CBK027610]: the “% of control remaining” value was determined as 155.324%.

For the molecule `FC(F)(F)c1ccnc(OCc2ccc(-c3ccccc3)cc2)c1` [CBK115826], the “% of control remaining” value came out at 94.8918%.

`Cc1ccc(-c2nccnc2OCCn2cccc2)cc1C` [CBK106864]: the “% of control remaining” value is reported as 104.508%.

On to `COc1ccc(CSc2nnc(-c3ccncc3)n2C)cc1[N+](=O)[O-]` [CBK269638], for which the “% of control remaining” value was 156.554%.

Consider `CCn1c(C(CC(C)C)NC(=O)c2ccco2)nc2cccnc21` (stereo not shown) [CBK283523], for which the “% of control remaining” value turned out to be 111.546%.

`O=C(CNC(=O)c1ccccc1Cl)Nc1ccc(Br)cc1C(=O)c1ccccc1` [CBK087691]: the “% of control remaining” value came to 100%.

In the case of `CC(C)c1nsc(NS(=O)(=O)c2cc(OCC(F)(F)F)ccc2OCC(F)(F)F)n1` [CBK051262], the “% of control remaining” value turned out to be 139.232%.

Turning to `Cc1nc(-c2ccccc2)sc1CNC(=O)/C=C/c1c[nH]cn1` [CBK092368], the “% of control remaining” value worked out at 138.964%.

As to `Cc1ccccc1Cc1cccc(C2CCN(C(=O)c3ccc(F)cc3)CC2)n1` [CBK286140], the “% of control remaining” value is 111.131%.

On to `Cc1nc(C2CCCN(C(=O)CCc3ccno3)C2)c2sccn12` (stereo not shown) [CBK285237], for which the “% of control remaining” value is 137.026%.

Turning to `O=C(Nc1ccc(N2CCOCC2)cc1)c1ccc(-n2cnnc2)cc1Cl` [CBK269889], the “% of control remaining” value came to 123.551%.

As for `O=C(Nc1cccnc1N1CCNCC1)c1ccc(-c2cccc(C(F)(F)F)c2)o1` [CBK034119T], the “% of control remaining” value was 100%.

`CC(=O)N1c2ccc(-c3cn4ccc(C)cc4n3)cc2CC1C` (stereo not shown) [CBK285191]: the “% of control remaining” value was found to be 92.0985%.

On to `O=C(O)C1CC(O)CN1S(=O)(=O)c1ccc(Cl)cc1` (stereo not shown) [CBK266106], for which the “% of control remaining” value worked out at 98.4764%.

In the case of `CCN(CC)CCOC(=O)C1(c2ccccc2)CCOc2ccccc21` (stereo not shown) [CBK009850C], the “% of control remaining” value is reported as 101.063%.

Take `CC(=O)OCC(=O)Nc1ccc2cc(Br)cnc2n1` [CBK063311]: the “% of control remaining” value turned out to be 95.7529%.

In the case of `CCn1cnc2cc(NC(=O)CC(C)n3nc(C)cc3C)ccc21` (stereo not shown) [CBK281401], the “% of control remaining” value is reported as 132.641%.

Consider `CC(=O)Nc1cccc(CN(CCCO)C2CCc3ccccc32)c1` (stereo not shown) [CBK304011], for which the “% of control remaining” value was found to be 86.8702%.

On to `Cn1ncc(N2CCC(CNC(=O)COc3ccc(Cl)cc3)C2)cc1=O` (stereo not shown) [CBK306517], for which the “% of control remaining” value was determined as 119.868%.

For the molecule `CC1CN(c2cc(CNc3nc4ccccn4c3C#N)ccn2)CCO1` (stereo not shown) [CBK306423], the “% of control remaining” value turned out to be 98.8997%.

Take `CN(C)Cc1cc(C[C@@H]2C[C@H](NS(=O)(=O)c3ccccc3)C2(C)C)no1` [CBK289307]: the “% of control remaining” value came out at 117.589%.

With `c1ccc([C@@H]2CN(CC3CCOC3)C[C@H]2c2cc[nH]n2)cc1` (stereo partly shown) [CBK285163], the “% of control remaining” value is 79.3613%.

Turning to `O=C(Cn1cccnc1=O)NC(c1ccc2c(c1)CCO2)C1CC(O)C1` (stereo not shown) [CBK306595], the “% of control remaining” value was 144.431%.

`CCn1cc(C2CN(S(=O)(=O)c3cc(C)c(OC)cc3C)CCO2)cn1` (stereo not shown) [CBK304225]: the “% of control remaining” value was determined as 83.9705%.

Turning to `CCCn1c(=O)c(C(=O)NCCN(CC)CC)c(O)c2cc(Br)ccc21` [CBK291118], the “% of control remaining” value is on record as 93.2956%.

In the case of `N=C1OC2CSCC2N1C(=O)Cc1ccccc1Cl` (stereo not shown) [CBK284516], the “% of control remaining” value is listed as 147.666%.

Regarding `OC(CN1CCC(O)(c2ccccc2F)CC1)c1ccc(F)cc1` (stereo not shown) [CBK282492], the “% of control remaining” value is on record as 145.916%.

For `CC(C)C1OC(NCCN2CCOCC2)=NC1=O` (stereo not shown) [CBK074097T], the “% of control remaining” value was determined as 141.185%.

For `Cc1ccc2cc(CN(CC(C)C)S(C)(=O)=O)c(O)nc2c1` [CBK269593], the “% of control remaining” value is listed as 84.4681%.

In the case of `CN1CCC(C(=O)N2CCCc3ccccc32)CC1` [CBK200260], the “% of control remaining” value stood at 105.47%.

For `N#Cc1cccc(-c2cnc(N)c(-c3ccc(O)cc3)n2)c1` [CBK115630], the “% of control remaining” value was determined as 123.125%.

Regarding `O=C(COc1cccc2ccccc12)N/N=C/c1ccco1` [CBK086853], the “% of control remaining” value worked out at 101.097%.

With `CN(C)CCN(C)C(=O)c1ccc(-c2cccc(OC(F)(F)F)c2)nc1N(C)C` [CBK106081], the “% of control remaining” value worked out at 172.982%.

Take `c1csc(CSc2nnc3sc4ccccc4n23)c1` [CBK266291]: the “% of control remaining” value is 149.633%.

Turning to `CC(C)(C)c1cc(C(=O)N2CCN(c3ncccn3)CC2)n(Cc2ccc(Cl)cc2Cl)n1` [CBK107294], the “% of control remaining” value was found to be 99.2924%.

Consider `Cc1cccc(OCCOc2ccc(Br)cc2/C=C2\SC(=N)NC2=O)c1` [CBK263958], for which the “% of control remaining” value is on record as 112.375%.

In the case of `CCNC(=O)[C@H]1CN(Cc2ccccc2)C[C@@H]1C(=O)c1ccccc1` [CBK285265], the “% of control remaining” value was 119.608%.

For the molecule `Cn1c(SCC(=O)N2CCN(Cc3ccccc3)CC2)nnc1-c1cccc([N+](=O)[O-])c1` [CBK267154], the “% of control remaining” value came out at 153.886%.

For the molecule `O=C(c1ccc(F)cc1)C1CCN(C(=O)c2cccnc2NCc2ccc3c(c2)OCO3)CC1` [CBK160114], the “% of control remaining” value turned out to be 84.6524%.

Regarding `CCn1c(C)cc2cc(NS(=O)(=O)c3cn(C)nc3C)ccc21` [CBK282789], the “% of control remaining” value is 119.711%.

Regarding `COc1cc(C#N)ccc1Oc1ccc([N+](=O)[O-])cn1` [CBK002569], the “% of control remaining” value was 102.279%.

As for `CN(Cc1nccs1)C(=O)NC1CCN(Cc2cccc(O)c2)CC1` [CBK307657], the “% of control remaining” value turned out to be 127.817%.

In the case of `O=C(Nc1ccc(Cl)cc1C(=O)O)c1ccccc1Cl` [CBK000171], the “% of control remaining” value turned out to be 107.981%.

On to `CCc1nc(CC(=O)NC(C)C(O)c2ccc(F)cc2)cs1` (stereo not shown) [CBK304003], for which the “% of control remaining” value was determined as 92.4574%.

Consider `CCN1C(=O)C(F)(CC)C(=O)c2ccccc21` (stereo not shown) [CBK098854], for which the “% of control remaining” value turned out to be 161.316%.

Regarding `CCCNC(=O)Cn1nc(CC)n2c(cc3sccc32)c1=O` [CBK284030], the “% of control remaining” value is recorded as 126.17%.

Turning to `NC(=O)CN1CCN(CCc2ccccc2)CC1` [CBK126429], the “% of control remaining” value turned out to be 117.85%.

As for `CC1(C)CC(NC(=O)C2CCN(S(C)(=O)=O)CC2)c2ccccc2O1` (stereo not shown) [CBK304404], the “% of control remaining” value stood at 135.461%.

With `CCC(CN1CCN(C)CC1)NC(=O)C1(c2ccc(F)cc2)CC1` (stereo not shown) [CBK282785], the “% of control remaining” value was 138.425%.

On to `FC(F)(F)c1cccc(Sc2cccc3ccccc23)n1` [CBK091449], for which the “% of control remaining” value is given as 91.0397%.

Regarding `Cc1nn(CC(=O)N(C)Cc2cnccn2)c(=O)c2ccccc12` [CBK304356], the “% of control remaining” value is recorded as 149.208%.
